Test results from paper PMC8564520.
These are yes or no findings as the source states them, for the method shown. For part of these data: Binding seen in cells or lysates may run through a third protein. Some results given as binding are weak or reduced against the parent protein; the word gives no strength. For part of these data: Sequences can lack the tags named with a protein. One block for each substance: values may come before it.

The chains behind the UniProt entries cited, without tags or fusion partners.
UniProt Q99873: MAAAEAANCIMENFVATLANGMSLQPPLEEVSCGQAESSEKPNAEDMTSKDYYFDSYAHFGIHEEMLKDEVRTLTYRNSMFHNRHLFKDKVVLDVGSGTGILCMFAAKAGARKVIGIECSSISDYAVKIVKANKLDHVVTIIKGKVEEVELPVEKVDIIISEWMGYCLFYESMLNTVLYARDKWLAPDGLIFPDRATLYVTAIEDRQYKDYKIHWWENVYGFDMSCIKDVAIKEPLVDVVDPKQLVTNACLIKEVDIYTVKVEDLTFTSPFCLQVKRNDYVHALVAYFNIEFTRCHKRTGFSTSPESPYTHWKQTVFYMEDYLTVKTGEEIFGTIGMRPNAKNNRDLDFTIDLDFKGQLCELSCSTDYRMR
UniProt P51784: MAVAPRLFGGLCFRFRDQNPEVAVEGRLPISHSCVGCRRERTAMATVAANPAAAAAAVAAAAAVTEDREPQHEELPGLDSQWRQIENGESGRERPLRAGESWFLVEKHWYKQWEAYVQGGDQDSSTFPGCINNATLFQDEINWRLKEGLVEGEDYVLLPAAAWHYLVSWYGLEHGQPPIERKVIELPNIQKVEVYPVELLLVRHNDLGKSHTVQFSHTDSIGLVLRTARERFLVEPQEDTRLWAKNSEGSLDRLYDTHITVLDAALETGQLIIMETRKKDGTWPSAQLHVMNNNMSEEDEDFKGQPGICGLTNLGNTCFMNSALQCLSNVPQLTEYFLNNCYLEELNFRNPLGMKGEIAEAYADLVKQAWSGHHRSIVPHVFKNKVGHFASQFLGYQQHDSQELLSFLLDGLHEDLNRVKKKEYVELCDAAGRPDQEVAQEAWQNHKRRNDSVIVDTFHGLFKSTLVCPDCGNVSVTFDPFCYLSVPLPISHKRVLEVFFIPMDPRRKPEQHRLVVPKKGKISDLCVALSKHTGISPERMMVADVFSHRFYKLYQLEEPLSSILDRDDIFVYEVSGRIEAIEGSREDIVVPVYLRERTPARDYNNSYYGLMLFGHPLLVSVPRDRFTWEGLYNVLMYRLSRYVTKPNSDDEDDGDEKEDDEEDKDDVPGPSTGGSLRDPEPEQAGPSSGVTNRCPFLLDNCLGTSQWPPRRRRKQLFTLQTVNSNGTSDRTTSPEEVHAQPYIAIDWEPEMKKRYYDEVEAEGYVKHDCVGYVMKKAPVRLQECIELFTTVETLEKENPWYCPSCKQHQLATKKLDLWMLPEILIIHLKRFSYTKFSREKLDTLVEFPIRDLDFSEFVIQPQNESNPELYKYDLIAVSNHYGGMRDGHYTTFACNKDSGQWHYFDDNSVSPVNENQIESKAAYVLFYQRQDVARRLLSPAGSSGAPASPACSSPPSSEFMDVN

Tests used:
recombinant GST-PRMT1 = recombinant GST-PRMT1 (UniProt Q99873); experiment: pull-down; 1 ug GST or GST-PRMT1 on glutathione 4B sepharose beads, incubated with 2 ug recombinant human USP11 for at least 3 h; PBS/0.01% IGEPAL; 4 washes with PBS/0.01% NP40; immunoblot; both purified
[1] = biological target: Flag-tagged USP11 (human) (UniProt P51784); experiment: co-IP; Flag-tagged USP11 immunoprecipitated from MCF7 cells; endogenous PRMT1 detected by immunoblot
myc-tagged MRE11 = biological target: T1, myc-tagged MRE11 (UniProt P49959); experiment: co-IP; myc-MRE11 immunoprecipitated with anti-Myc (9E10) from HeLa-myc-MRE11 cells in 0.1% NP40 lysis buffer; associated PRMT1 detected by immunoblot; cells with doxycycline-induced shCTRL or shUSP11, or stably expressing USP11 or USP11-R433K
T1 sequence: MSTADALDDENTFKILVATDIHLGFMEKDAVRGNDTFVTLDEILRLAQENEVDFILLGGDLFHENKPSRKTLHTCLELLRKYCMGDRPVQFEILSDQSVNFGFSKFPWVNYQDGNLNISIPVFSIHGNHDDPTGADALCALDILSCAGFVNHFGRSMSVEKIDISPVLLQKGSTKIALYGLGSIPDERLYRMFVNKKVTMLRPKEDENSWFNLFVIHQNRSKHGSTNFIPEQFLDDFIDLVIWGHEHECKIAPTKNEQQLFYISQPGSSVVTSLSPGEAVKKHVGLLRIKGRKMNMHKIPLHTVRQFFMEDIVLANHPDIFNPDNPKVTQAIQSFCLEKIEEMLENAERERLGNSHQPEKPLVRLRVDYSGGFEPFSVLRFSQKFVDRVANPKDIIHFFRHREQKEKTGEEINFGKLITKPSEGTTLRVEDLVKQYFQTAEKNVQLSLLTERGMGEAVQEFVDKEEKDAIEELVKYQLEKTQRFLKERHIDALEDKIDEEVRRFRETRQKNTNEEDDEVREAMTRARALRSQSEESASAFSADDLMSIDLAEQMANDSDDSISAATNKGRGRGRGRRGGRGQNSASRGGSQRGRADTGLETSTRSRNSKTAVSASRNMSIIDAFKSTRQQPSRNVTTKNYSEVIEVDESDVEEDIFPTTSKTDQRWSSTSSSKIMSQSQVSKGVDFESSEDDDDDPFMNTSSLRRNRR

binding (recombinant GST-PRMT1): binds
Substance: recombinant human USP11 (from UniProt P51784 1-963) (enzyme)

binding [1]: binds
Substance: PRMT1 (endogenous, MCF7) (from UniProt Q99873 1-371) (enzyme)

binding (myc-tagged MRE11): binds
Substance: PRMT1 (endogenous, HeLa) (from UniProt Q99873 1-371) (enzyme)
